From the supplement of paper PMC10735217
Counter-ions that a name gives are not always drawn. This is one part of the list. Repeats in this data set agree poorly, so a single value says little.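 In a drug-repurposing library screen, luminescence reads luciferase driven by eight TEAD-binding elements, stably integrated into human kidney-derived cells. Compounds scoring over five robust Z scores above the plate mean are called hits.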

Tested on: HEK293A TEAD-LUC reporter
Assay: TEAD-luciferase reporter activity (YAP activation), robust Z score vs plate; higher = stronger YAP/TEAD activation
Settings: 24 h

| Structure (SMILES) | TEAD-luciferase reporter activity (compound concentration: 200 nM) | TEAD-luciferase reporter activity (compound concentration: 2 uM) | TEAD-luciferase reporter activity (compound concentration: 10 uM) |
| --- | --- | --- | --- |
| CC(=O)[C@@]1(O)CCC2C3CCC4=CC(=O)CCC4(C)C3[C@H](O)CC21C (stereo not given in full) | inactive: 0.655 | inactive: -1.15 | inactive: 0.367 |
| COCCCC=C(NOCCN)c1ccc(C(F)(F)F)cc1 [fluvoxamine CR] | inactive: -0.51 | inactive: 0.157 | inactive: 1.08 |
| CN1C(C(=O)Nc2nccs2)C(=O)c2ccccc2S1(=O)=O (stereo not given) [sudoxicam] | inactive: -0.269 | inactive: -0.523 | inactive: -0.0239 |
| Oc1ccc([C@@H]2COc3cc(O)ccc3[C@H]2O)cc1 | inactive: -0.703 | inactive: 0.925 | active: 7.38 |
| CN(C)CCOC(c1ccccc1)c1ccccc1.Cn1c(=O)c2[nH]c(Cl)nc2n(C)c1=O [dimenhydrinate CDT, SCOLR] | inactive: 0.278 |  | inactive: -0.953 |
| CN(C)CCOC(c1ccccc1)c1ccccc1.Cn1c(=O)c2[nH]c(Cl)nc2n(C)c1=O [dimenhydrinate CDT] |  | inactive: -0.43 |  |
| C=C1/C(=C\C=C2/CCC[C@]3(C)[C@@H]([C@H](C)CCCC(C)C)CC[C@@H]23)C[C@@H](O)C[C@@H]1O [Alfacalcidol] | inactive: 0.894 | inactive: 0.141 | inactive: -0.197 |
| NCCON=C1c2ccccc2C2CC2c2ccccc21 (stereo not given) [mariptiline] | inactive: -0.491 | inactive: -0.86 | inactive: 2.05 |
| CC(=O)OC(CC(=O)O)C[N+](C)(C)C [acetyl L-carnitine] | inactive: 0.683 | inactive: 0.0246 | inactive: 1.04 |
| NCCCC[C@H](NC(=O)[C@@H](Cc1cc(Br)c(O)c(Br)c1)NC(=O)N1CCC(N2Cc3ccccc3NC2=O)CC1)C(=O)N1CCN(c2ccncc2)CC1 [olcegepant] | inactive: 2.89 |  | inactive: -0.775 |
| NCCCC[C@H](NC(=O)[C@@H](Cc1cc(Br)c(O)c(Br)c1)NC(=O)N1CCC(N2Cc3ccccc3NC2=O)CC1)C(=O)N1CCN(c2ccncc2)CC1 |  | inactive: -0.447 |  |
| CCN(CC)C(=O)/C(C#N)=C/c1cc(O)c(O)c([N+](=O)[O-])c1 [entacapone] | inactive: 0.788 | inactive: -1.88 | inactive: 1.57 |
| CCCc1cc(C2=N[C@@H](C(=O)NO)CO2)cc(OC)c1OC | inactive: -1.71 | inactive: -1.51 | inactive: 1.43 |
| CON=C(C(=O)NC1C(=O)N2C(C(=O)O)=C(CSc3nc(C)c(CC(=O)O)s3)CSC12)c1csc(N)n1 (stereo not given) [Cefodizime] | inactive: -2.31 |  | inactive: 2.38 |
| CON=C(C(=O)NC1C(=O)N2C(C(=O)O)=C(CSc3nc(C)c(CC(=O)O)s3)CSC12)c1csc(N)n1 (stereo not given) [cefodizime] |  | inactive: -1.19 |  |
| CCCCCCCN(CCCCCSc1nc(-c2ccccc2)c(-c2ccccc2)[nH]1)C(=O)Nc1ccc(F)cc1F [Lecimibide] | inactive: -0.363 | inactive: -0.171 | inactive: 1.22 |
| Cc1c(C)n(CC2CC2C)c2c(OCc3ccc(F)cc3)nncc12 (stereo not given) | inactive: 0.0217 | inactive: -0.663 | inactive: -1.01 |
| CC(=O)NC(Cc1ccc2ccccc2c1)C(=O)NC(Cc1ccc(Cl)cc1)C(=O)NC(Cc1cccnc1)C(=O)NC(CO)C(=O)NC(CCCCNC(=O)c1cccnc1)C(=O)NC(CCCCNC(=O)c1cccnc1)C(=O)NC(CC(C)C)C(=O)NC(CCCCNC(C)C)C(=O)N1CCCC1C(=O)NC(C)C(N)=O (stereo not given) [Iturelix] | inactive: -0.0812 | inactive: -0.588 | inactive: 3.37 |
| CCCCCCCCCCCCCCC[C@@H](O)[C@@H](CO)NC(C)=O | inactive: -1.23 | inactive: 1.84 | inactive: 0.707 |

| Structure (SMILES) | TEAD-luciferase reporter activity (compound concentration: 200 nM) | TEAD-luciferase reporter activity (compound concentration: 2 uM) | TEAD-luciferase reporter activity (compound concentration: 10 uM) |
| --- | --- | --- | --- |
| CCc1nc2c(C)cc(N3CCN(CC(=O)N4CC(O)C4)CC3)cn2c1N(C)c1nc(-c2ccc(F)cc2)c(C#N)s1 | inactive: -1.39 | inactive: 0.0368 | inactive: -0.667 |
| Nc1ncnc2c([C@@H]3N[C@H](CO)[C@@H](O)[C@H]3O)c[nH]c12 [Galidesivir] | inactive: -1.32 | inactive: -1.07 | inactive: 0.459 |
| CS(=O)(=O)c1ccc(-c2nc3n(c2-c2ccncc2)CCC3)cc1 | inactive: -0.335 | inactive: 0.308 | inactive: 0.852 |
| CC(=O)CCc1nc(N)c2nc(-n3nccn3)n(C)c2n1 | inactive: 2.12 | inactive: -1.04 | inactive: -0.708 |
| O=C(c1ccc(F)cc1)C1CCN(CCCCn2c(=O)[nH]c3ccccc3c2=O)CC1 | inactive: -0.0738 | inactive: 0.589 | inactive: 0.616 |
| Cc1c2ccnc(C(=O)NCCN(C)C)c2cc2c3cc(O)ccc3n(C)c12 | inactive: -1.18 | inactive: 2.53 | inactive: 2.8 |
| NCCCC[C@@H](N)C(=O)N[C@H](CO)C(=O)O | inactive: 1.14 | inactive: -0.776 | inactive: -1.35 |
| CCCCCCCCCCCCC(=O)N1CCCCC1CNC(=O)[C@@H](N)CCCCN (stereo not given in full) | inactive: -0.561 | inactive: -1.43 | inactive: -0.505 |
| CC(C)(C)C(=O)NC1CCN(c2nc3ncccc3o2)CC1 | inactive: 3.63 |  | inactive: 0.905 |
| CC12CCC(=O)C=C1CCC1C2CCC2(C)C1CC[C@]2(O)C(=O)CO (stereo not given in full) [cortodoxone] | inactive: -0.0568 | inactive: -2.47 | inactive: 1.35 |
| CC(C)(O)CC(=O)NCCn1ccc2ncnc(Nc3ccc(Oc4cccc(C(F)(F)F)c4)c(Cl)c3)c21 | inactive: -0.827 | inactive: -1.75 | inactive: -1.4 |
| C[C@H]1SC[C@]2(O1)CN1CC[C@H]2CC1 [cevimeline hydrochloride] | inactive: 1.26 | inactive: -0.945 | inactive: 1.19 |
| CC(=O)OCn1ncc2c(O)ncnc21 | inactive: -0.608 | inactive: -1.82 | inactive: 0.0866 |
| CCCCCCCCc1ccc(CCC(N)(CO)CO)cc1 [fingolimod hydrochloride] | inactive: -0.597 | inactive: -1.49 | inactive: 3.42 |
| CC(=O)N1Cc2ccccc2CC12CCCN(C(=O)CCCN(C)C)C2 (stereo not given) | inactive: -0.757 |  | active: 5.88 |
| CCOc1cc(OCC)c(C(=O)CCC(=O)O)cc1OCC [trepibutone] | inactive: 1.14 | inactive: -1.51 | inactive: 1.02 |
| Cc1c(C)c2ccc(OCCCN3CCN(Cc4ccc(Cl)cc4)CC3)cc2oc1=O | inactive: -1.01 | inactive: 3 | inactive: -0.205 |
| COc1ccccc1OC1(C)OC(=O)c2ccccc2O1 (stereo not given) [guaimesal] | inactive: -1.44 | inactive: -1.07 | inactive: -0.936 |
| O=C1c2ccccc2CN1C1CCN(Cc2ccc(C(F)(F)F)cc2)CC1 | inactive: 1.64 |  | active: 27.6 |

5 entries picked at random from those above, as already listed:

| Structure (SMILES) | TEAD-luciferase reporter activity (compound concentration: 200 nM) | TEAD-luciferase reporter activity (compound concentration: 2 uM) | TEAD-luciferase reporter activity (compound concentration: 10 uM) |
| --- | --- | --- | --- |
| Nc1ncnc2c([C@@H]3N[C@H](CO)[C@@H](O)[C@H]3O)c[nH]c12 [Galidesivir] | inactive: -1.32 | inactive: -1.07 | inactive: 0.459 |
| C[C@H]1SC[C@]2(O1)CN1CC[C@H]2CC1 [cevimeline hydrochloride] | inactive: 1.26 | inactive: -0.945 | inactive: 1.19 |
| NCCCC[C@@H](N)C(=O)N[C@H](CO)C(=O)O | inactive: 1.14 | inactive: -0.776 | inactive: -1.35 |
| CC12CCC(=O)C=C1CCC1C2CCC2(C)C1CC[C@]2(O)C(=O)CO (stereo not given in full) [cortodoxone] | inactive: -0.0568 | inactive: -2.47 | inactive: 1.35 |
| Cc1c2ccnc(C(=O)NCCN(C)C)c2cc2c3cc(O)ccc3n(C)c12 | inactive: -1.18 | inactive: 2.53 | inactive: 2.8 |

(listing goes on)

| Structure (SMILES) | TEAD-luciferase reporter activity (compound concentration: 200 nM) | TEAD-luciferase reporter activity (compound concentration: 2 uM) | TEAD-luciferase reporter activity (compound concentration: 10 uM) |
| --- | --- | --- | --- |
| Cc1ncc([N+](=O)[O-])n1CCc1ccncc1 | inactive: -1.48 | inactive: -1.08 | inactive: 0.395 |
| CC(=O)c1ccc(S(=O)(=O)NC(=O)NC2CCCCC2)cc1 [Acetohexamide] |  | inactive: 0.624 |  |
| CC(=O)c1ccc(S(=O)(=O)NC(=O)NC2CCCCC2)cc1 | inactive: -0.438 |  | inactive: -1.44 |
| CCC1OC(=O)C(C)(F)C(=O)C(C)C(OC2OC(C)CC(N(C)C)C2O)C(C)(OC)CC(C)C(=O)C(C)C2N(CCCCn3cc(-c4cccc(N)c4)nn3)C(=O)OC12C (stereo not given) [solithromycin] | inactive: 0.453 | inactive: -0.726 | inactive: 0.611 |
| CCCCCCCCCCCC1=C(O)C(=O)C=C(O)C1=O | inactive: 0.574 | inactive: -0.292 | inactive: 0.236 |
| COC(=O)Nc1nc2cc(S(=O)c3ccccc3)ccc2[nH]1 (stereo not given) | inactive: -0.0289 | inactive: 0.676 | inactive: -0.859 |
| C(=C\[C@@H]1CCNC1)/c1cncnc1 | inactive: -0.154 | inactive: -0.543 | inactive: -0.256 |
| CCOC(=O)CCS[C@@H](CC(=O)OCC)c1ccccc1CCCCCCCCc1ccccc1 | inactive: 0.102 | inactive: -0.0082 | inactive: -1.36 |
| CN(C(=O)c1cccc(F)c1)c1ccc(O)cc1 | inactive: 0.368 | inactive: -0.411 | inactive: 2.56 |
| C=C(C)C1CC=C(CO)CC1 (stereo not given) [perillyl alcohol] | inactive: 0.248 | inactive: 1.24 | inactive: -1.9 |
| Cc1c(Cn2ccnc2)c2ccccc2n1CCC(=O)O [Dazmegrel] | inactive: -1 | inactive: 0.76 | inactive: -0.832 |
| CC(C)OC(=O)Nc1ccc(Cl)cc1 | inactive: -0.414 | inactive: 1.44 | inactive: 1.33 |
| CC(C)(O)c1ccn2c(-c3ccc(F)c(-c4ccc(F)cc4C#N)c3)cnc2c1F | inactive: -0.0615 | inactive: -2.73 | inactive: -2.64 |
| Cn1c(=O)c2nc[nH]c2n(C)c1=O [Aminophylline] | inactive: -0.391 |  | inactive: -1.29 |
| Cn1c(=O)c2nc[nH]c2n(C)c1=O |  | inactive: -1.6 |  |
| Nc1ncc2ncn(CCC(CO)CO)c2n1 | inactive: 0.511 | inactive: -0.338 | inactive: -0.857 |
| COc1ccc2[nH]c(C(=O)N3CCC(CC(C)(C)O)CC3)cc2c1 | inactive: 1.01 | inactive: -1.03 | inactive: -0.959 |
| CCCCCCCCCCCCCCCCCCNC(=O)OC1CCN(C(=O)OCC(COC(=O)N(Cc2cccc[n+]2CC)C(=O)c2ccccc2OC)OC)CC1 (stereo not given) | inactive: 0.229 | inactive: 1.09 | inactive: 1.13 |
